Assays:
[1] = Rewetting rate of sanitary napkin with top sheet coated with blood modifying agent (Example 1); conditions: horse EDTA blood 3 g dropped twice; agent coated at about 5 g/m^2; filter paper 30 g/cm^2, 1 minute
[2] = Absorbent body migration rate (Example 1); conditions: time after the second dropping of horse EDTA blood; agent coated at about 5 g/m^2

Row | Structure (SMILES) | Rewetting rate (%) [1] [%] | Absorber migration rate [2] [s]
1 | CCCCCCCCOC(=O)CCCCC(=O)OCCCCCCCC [2-17] | 1.7 | 
2 | CCCCCCCCCCCCOC(=O)CCCCCCCCCCC [2-18] | 1.8 | 
3 | CCCCCCCCCCCCCC(=O)OCCCCCCCCCCCC [2-19] | 1.8 | 4
